Out of some 360,000 compounds screened, about 7,500 (2.1%) were called active. Inconclusive results, whose numbers are uncertain, are shown with a selection of clear calls. Calls come from the whole dose curve; as a rule, active = well fitted inhibition curve with a large enough effect; inconclusive = small, poorly fitted or top-dose-only effect, or effect the other way; inactive = flat fitted curve, though single readings scatter. Potencies of inconclusive entries are doubtful fits and often do not repeat.
Test: Nrf2 qHTS screen for inhibitors; note: nearly all actives have a fitted effect of over 60% in size
Conditions: A549 ARE-Fluc reporter, luciferase luminescence, 18-24 h; series mostly up to 46 µM
Outline: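 Nrf2 activity is the BugLite luminescence, read 15 min after reagent at room temperature, following CellTiter-Fluor cytotoxicity readout (30 min, 37C). Compound titrations were applied for 18-24 h to 5000 A549 ARE_Fluc cells/well in 5% FBS OPTI-MEM.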
Potency is the fitted concentration of half-maximal effect.

SMILES | Potency
Cn1c(-c2sc3ccccc3c2Cl)n[nH]c1=S | inconclusive: 1.64 µM [falling, full curve]
Cc1nn(-c2ccccc2)c(C)c1C(=O)OCc1ccc(C#N)cc1 | inconclusive: 20.6 µM [falling, partial curve, poor fit]
CC(C)CCNC(=O)C1CC(=O)N(CCc2ccccc2)C1 (configuration not stated) | inconclusive: 7.31 µM [activator, partial curve, poor fit]
CCN(c1ccccc1)c1nc(N)nc(C#N)n1 | inconclusive: 25.9 µM [falling, single point]
COc1cc(NC(=O)CCCc2c[nH]c3ccccc23)cc(OC)c1 | inconclusive: 2.91 µM [falling, full curve]
Cc1ccc2c(CC(=O)Nc3cc(C(F)(F)F)ccc3Cl)coc2c1C | inconclusive: 32.6 µM [falling, partial curve, poor fit]
CC1CN(CC(O)COc2ccc(C(C)C)cc2)CC(C)O1 (configuration not stated) | inactive
CSCC[C@@H](C(=O)NCCCCCCCCCCC(=O)N1CCN(C(=O)OC(C)(C)C)CC1)n1cc(CCO)nn1 | inconclusive: 16.4 µM [falling, single point]
CCC12CN3CC(CC)(CN(C1)C3c1ccc(OCc3ccccc3)cc1)C2=O (configuration not stated) | inactive
COc1ccc2c(c1OC)C(=O)OC2Nc1nc(-c2cc3ccccc3oc2=O)cs1 (configuration not stated) | inconclusive: 0.731 µM [activator, full curve]
COc1ccc(-c2nnc(-c3ccccc3O)o2)cc1 | inconclusive: 29.1 µM [activator, single point]
O=C(c1ccccc1)c1ccccn1 | inactive
S=C(NCCN(C1CCCCC1)C1CCCC1)Nc1cccc(Cl)c1 | inconclusive: 29.1 µM [falling, single point]
COc1cccc(C(=O)Nc2nnc(S(=O)(=O)N3CCOCC3)s2)c1 | inconclusive: 10.3 µM [activator, partial curve, poor fit]
CC(=O)Nc1ccc(S(=O)(=O)/N=C2\C(=O)c3ccccc3C([O-])=C2n2cc[n+](-c3ccccn3)c2)cc1 | inactive
CCN(CCCNC(=O)C1CCN(S(=O)(=O)c2cnc[nH]2)CC1)c1cccc(C)c1 | inconclusive: 0.0046 µM [activator, full curve, poor fit]
Cn1c(CCN2CCCCC2)nc2cc(NC(=O)COc3ccc([N+](=O)[O-])cc3)ccc21 | inconclusive: 6.51 µM [activator, single point]
COc1ccccc1C(=O)NC(CCSC)C(=O)OCC(=O)NC(=O)NCc1ccco1 (configuration not stated) | inconclusive: 18.4 µM [activator, single point]
CCOC(=O)COc1cc(OCC(=O)OCC)c2c(=O)cc(-c3ccccc3)oc2c1 | inconclusive: 29.1 µM [activator, single point]
CN1C(=O)/C(=C/c2cccc(Cl)c2)Sc2ccc(C(=O)NCc3cccnc3)cc21 | inconclusive: 29.1 µM [falling, single point]
CCc1cccc(CC)c1NC(=O)CO/N=C(\C)c1cccs1 | inconclusive: 29.1 µM [falling, single point]
Cc1cc(=O)[nH]c(-n2nc(C)cc2C)n1 | inconclusive: 25.9 µM [falling, partial curve, poor fit]
O=C(/C=C/c1ccc2c(c1)OCO2)Nc1cccnc1 | inconclusive: 3.26 µM [activator, full curve]

SMILES | Potency
Cc1nnc2ccc(Oc3ccc(-c4ccccc4)cc3)nn12 | inconclusive: 11.6 µM [falling, partial curve, poor fit]
Cn1cnc([N+](=O)[O-])c1S(=O)(=O)c1cccc(Cl)c1 | inactive
COc1ccc(N2CCN(C(c3ccccc3)c3nnc(-c4ccccc4Cl)o3)CC2)cc1 (configuration not stated) | inconclusive: 4.61 µM [falling, single point]
Cc1cccc(NC(=O)CSc2nc3c(oc4ccccc43)c(=O)n2C(C)C)c1 | inconclusive: 14.6 µM [falling, partial curve]
O=c1c2cnn(-c3ccccc3)c2nc(-c2ccco2)n1-c1ccccc1 | active: 9.2 µM
CCc1cn([C@H]2C[C@H](O)[C@@H](CO)O2)c(=O)[nH]c1=O | inactive
CC1=C(C(=O)NCCc2ccc(Cl)cc2)C2(CCCCC2)OC1=O | inconclusive: 16.4 µM [activator, single point]
CC1=NN(C(=O)c2ccc(Cn3nc(C)c([N+](=O)[O-])c3C)o2)C(O)(C(F)(F)F)C1 (configuration not stated) | inconclusive: 23.1 µM [falling, partial curve, poor fit]
COc1cccc(-c2cc(C(=O)N3CCOCC3)no2)c1 | inconclusive: 13 µM [activator, partial curve]
O=C(CCCN1C(=O)CCC1=O)Nc1ccc2c(c1)OCCO2 | inconclusive: 18.4 µM [activator, partial curve]
COC(=O)c1cc(S(=O)(=O)Nc2cc(OC)cc(OC)c2)cn1C | inconclusive: 10.3 µM [falling, partial curve, poor fit]
COc1ccc(N2CCN(c3nc4c(c(=O)n(C)c(=O)n4C)n3Cc3ccccc3)CC2)cc1 | inconclusive: 23.1 µM [falling, partial curve]
COCCNC(=O)CCCn1c(SCC(=O)Nc2cccc(C)c2)nc2c(sc3ccccc32)c1=O | inactive
COc1ccc(N2C(=O)c3ccccc3NC2c2ccccc2O)cc1 (configuration not stated) | inconclusive: 1.16 µM [activator, full curve]
O=C(CN1CCOCC1)Nc1c(-c2ccccc2)c2cc(Br)ccc2[nH]c1=O | inconclusive: 0.0366 µM [falling, full curve, poor fit]
Cc1cc(/C=C(\C#N)C(=O)Nc2ccccc2F)c(C)[nH]1 | inconclusive: 2.06 µM [activator, partial curve]
COc1cccc(C(=O)Nc2ccc(C(F)(F)F)n(C)c2=O)c1 | inconclusive: 14.6 µM [activator, partial curve]
CCCCn1c(SCC(=O)Nc2nnc(CC)s2)nc2c1c(=O)n(C)c(=O)n2C | active: 8.2 µM
Brc1csc(/C=N/Nc2nc3ccccc3s2)c1 | inconclusive: 29.1 µM [activator, single point]
O=C(CCN1CCc2ccccc2CC1)c1ccc2c(c1)OCCO2 | active: 18.4 µM
Cc1ccc(CN2CCSCC2)cc1 | inactive
COc1ccc(-c2cnc(N)nc2-c2ccc(OC)cc2O)cc1 | inconclusive: 13 µM [falling, partial curve, poor fit]
CCS(=O)(=O)N1CC(=O)N(c2ccc(C)c(C)c2)C(C)(C(=O)NC2CCCCC2)C1 (configuration not stated) | inactive

Reformatted with tabs: part of the list above.
SMILES	Potency
Cc1cccc(NC(=O)CSc2nc3c(oc4ccccc43)c(=O)n2C(C)C)c1	inconclusive: 14.6 µM [falling, partial curve]
CCCCn1c(SCC(=O)Nc2nnc(CC)s2)nc2c1c(=O)n(C)c(=O)n2C	active: 8.2 µM

Later entries:

SMILES | Potency
O=C1c2ccccc2CN1C(CO)Cc1ccccc1 (configuration not stated) | inactive
CCOc1ccccc1-c1nc(C(N)=O)c2[nH]c(=O)n(-c3ccccc3)c2n1 | inconclusive: 16.4 µM [falling, single point]
Cc1ccc(C(=O)O)cc1NC(=O)Nc1ccc2c(c1)OCO2 | inconclusive: 16.4 µM [activator, single point]
CCc1ccc(-c2nc3c(c(SCc4ccc(F)cc4)n2)Cc2c(CO)cnc(C)c2O3)cc1 | inactive
COc1ccc(S(=O)(=O)Nc2cc(OC)cc3cccnc23)cc1 | inconclusive: 16.4 µM [falling, single point]
CCc1nc(NCCc2ccccn2)c2nnn(Cc3ccccc3F)c2n1 | inconclusive: 29.1 µM [falling, partial curve, poor fit]
Fc1ccc2c(c1)Sc1ccc(Cl)cc1CC2N1CCN(CCC2OCCO2)CC1 (configuration not stated) | inconclusive: 1.46 µM [activator, full curve, poor fit]
O=C(COC(=O)c1n[nH]c2ccccc12)NC1CCCCC1 | inconclusive: 20.6 µM [activator, partial curve, poor fit]
O=C(N/N=C/c1cccc2ccccc12)c1n[nH]c2c1CCCC2 | inconclusive: 5.8 µM [activator, full curve]
CCOC(=O)C1=NN(c2ccc(Cl)cc2)C(=O)C1 | inconclusive: 29.1 µM [activator, single point]
COc1cc(-c2noc(-c3ccc(NCCc4ccccc4)c([N+](=O)[O-])c3)n2)cc(OC)c1OC | inconclusive: 29.1 µM [falling, single point]
CCCCOc1ccc(C(=O)NCC(=O)NC2CCC(C)CC2)cc1 (configuration not stated) | inactive
N#Cc1ccccc1S(=O)(=O)N1CCN(c2ccc(S(=O)(=O)N3CCOCC3)cn2)CC1 | inconclusive: 29.1 µM [activator, single point]
CC(C)COc1ccc(C(=O)Nc2cc(S(=O)(=O)N3CCOCC3)ccc2N2CCCC2)cc1 | inactive
COc1ccc(NS(=O)(=O)c2cccc(C(=O)N/N=C/c3cn(-c4ccccc4)nc3-c3ccccc3)c2)cc1 | inconclusive: 23.1 µM [falling, partial curve, poor fit]
Cc1ccc(C)c(N2CCN(C(=O)c3ccc4c(Cl)c5c(nc4c3)CCCC5)CC2)c1 | inactive
COc1cc2c(cc1NC(=O)c1cccc(F)c1)CCCC2 | inactive
N#Cc1nc(N)nc(N2CCCCC2)n1 | active: 18.4 µM
COc1ccc(-c2cccc([C@H]3[C@@H]4C=CCC[C@@]4(C)C(=O)N3Cc3ccccc3)c2)cc1 | inactive
O=[N+]([O-])c1ccc2[nH]cc(S(=O)(=O)N3CCN(c4cccc(Cl)c4)CC3)c2c1 | inconclusive: 23.1 µM [falling, single point]
C/C(=N\NC(=O)c1cc(C2CC2)nc2ccccc12)c1ccc(O)cc1O | inconclusive: 29.1 µM [falling, single point]
